Experimental data taken from article PMC10163288.
The other results are listed elsewhere or left out.

B1: il2ra_site2_3nfp_normal_mot_HHH_b1_05627_af2_000000038_0001_43_56_H_._HHH_b1_07216_0001_0000300022_0000001_0 (protein)
chain: SSSSKLEEYIRAALIAVEEALEEGDPEAAEKSLEAAKQAAELARDEELLEEVERLEELLKSSSSS
B2: il2ra_site2_2erj_sap_21_mot_cf89365494dbba80ae51c8475d1ce666_0001_af2_000000081_0001_35_48_H_._HHH_b2_06230_0001_0000200015_0000001_0_0001 (protein)
chain: SSSSSDERLRKLFELASRLMSARTEEEFEELFEEIEELAKELNSENIEELLRHLQKLFESSSSSS
B3: il2ra_site1_3nfp_normal_mot_HHH_b1_06850_000000137_0001_20_36_H_._07b95291b2aa50a0032af9b2c932e4da_0001_0001_0000100004_0000001_1 (protein)
chain: SAAEYAVELLLKDGVPPEEILERLREDAERMGLPPEEVLQLILEVARAVGDPELEKLVEKELEET
B4: il2ra_site1_3nfp_sap_23_mot_HHH_b1_08274_af2_000000107_0001_1_20_H_._HHH_b2_05889_af2_0001_0000600011_0000001_0_0001 (protein)
chain: DREWARQLLERALENGNLEHALRALIRYARKAGNPEFVELLEEALELAKRNPEEAIKLAEEALSK
B5: il2ra_site1_2b5i_sap_4_mot_HHH_b1_05003_000000208_0001_23_39_H_._HHH_b2_05191_0001_0000600030_0000001_0_0001 (protein)
chain: SSSDELNRVAAEIVDELAEKLGLDWEQFRELTRYAVRLIWRGVSEEEIEEEVRRLAEELRGSSSS
B6: il2ra_site1_3nfp_sap_23_mot_HHH_b1_06312_000000077_0001_1_18_H_._HHH_b1_02183_af2_0001_0000300006_0000001_0_0001 (protein)
chain: NLKRMLEQFRKAGDPLIEEIAEVLEEARRRGDREVLEEIYRLIMKFIRGELPPEEVLELVERLLK
B7: il2ra_site1_1z92_sap_11_mot_HHH_b1_01467_000000208_0001_22_39_H_._HHH_b2_05789_af2_0001_0000100013_0000001_0_0001_af2pred_dldesign_0_af2pred (protein)
chain: NIFEEIRRELEADPSFYEELARLLLRDAGGDAARAKAMADIYGRRGGIPEEVVARIKAIIDELVE
B8: il2ra_site2_2erj_sap_19_mot_HHH_b1_04810_000000187_0001_1_15_H_._82a85cb19d3401380e8a5036dcc53c2d_0001_0001_0000200003_0000001_0_0001 (protein)
chain: SSSSDWLHELYELAVRLTRLVAEGDEEEFEKVLEEVKRLAEEADSPNAREIVESLERLFRSSSSS
B9: il2ra_site2_2erj_normal_mot_HHH_b2_06411_000000092_0001_40_56_H_._HHH_b2_04892_af2_0001_0000100010_0000001_0 (protein)
chain: SSSSTEELREAYELAVKALHLISEGDPRAEEVIKELKELAEELDNPALEQIVELLEEKLGSSSSS
B10: il2ra_site2_3nfp_normal_mot_06aac5ad12d75b9fbd31e1a3f90cf818_0001_1_af2_000000264_0001_35_48_H_._HHH_b2_03912_0001_0000100004_0000001_0_af2pred_0001_af2pred (protein)
chain: SSSSEETEEFARQVVEELVEEYKLSEKDKEVLEKSAELALEAGADESYIKTWLEASAKLLSSSSS
B11: il2ra_site1_2b5i_sap_2_mot_HHH_b1_05947_000000126_0001_42_56_H_._HHH_b2_03172_0001_0000700047_0000001_0_0001_af2pred_dldesign_0_af2pred (protein)
chain: SSSSDEEYDKVEDLFKEALRLFREGKKEEAQKLLDEAEALAEKLGDAKLVAELRRLREWLKSSSS
B12: il2ra_site1_1z92_sap_18_mot_HHH_b2_04293_000000220_0001_23_38_H_._HHH_b2_07985_0001_0000300030_0000001_0_0001_af2pred_0001_af2pred (protein)
chain: SSSSSKLEKDLRIAVKVAVRAAGLSEEEQEELERLAEELARRGIDREEALRILDKRALELHSSSS
B13: il2ra_site2_2erj_normal_mot_HHH_b2_04744_000000290_0001_42_58_H_._HHH_b1_07932_0001_0000100006_0000001_0 (protein)
chain: SSSSDEEEIEELLEELQEALERGDHELFNEIATRVFELIKKLGDEELALILWRLMREHFELSSSS
B14: il2ra_site2_2erj_normal_mot_HHH_b1_03107_000000098_0001_39_52_H_._HHH_b2_04977_0001_0000300025_0000001_0 (protein)
chain: SSSSSEERRKIFEEIAELSARLIEEGDPELLKRLEELLEIAEELGNEIAVRYAEFARRDHSSSSS
B15: il2ra_site2_2erj_sap_5_mot_7e65b9b3744af75e5722afc9efacd91e_0001_000000122_0001_16_31_H_._HHH_b1_00287_0002_0000700051_0000001_0_0001 (protein)
chain: SSSSSEEEVEELIQEAERLLEEGDPEKAEEVLSRAFELAYEVNDPELASRVIELMASIVRSSSSS
B16: il2ra_site1_3nfp_sap_17_mot_HHH_b2_06429_af2_000000115_0001_1_18_H_._HHH_b2_03571_af2_0001_0000700010_0000001_0_0001 (protein)
chain: GIAALLALRAIEDGSERTVKRLREQIERMARLLKDPKMEELLELIERALQGDPEAKEELEKLIED
B17: il2ra_site2_2erj_normal_mot_af86707857d369f3e1d85dcabc5f9321_0001_000000201_0001_14_29_H_._HHH_b1_04724_af2_0001_0000400016_0000001_0 (protein)
chain: SSSSDLEERVEELLEKAEELLERGNPEEALEVVREAFEIAYKLGDHRLAALAIELAHKIVRSSSS
B18: il2ra_site1_1z92_sap_16_mot_HHH_b1_06078_000000124_0001_1_18_H_._b330152711b06c111f3f0455498469a7_0001_1_af2_0001_0000400016_0000001_0_0001_af2pred_0001_af2pred … (protein)
chain: SSSSDLEEIAEELVEELVEEFGADEEEEEALRKAAQLAARNGFSPKSIHLALRRLIERELSSSSS

Target: il2ra, P01589
Assay: yeast display titration

Apparent Kd, inactive:
B1 no binding seen
B2 no binding seen
B3 no binding seen
B4 no binding seen
B5 no binding seen
B6 no binding seen
B7 no binding seen
B8 no binding seen
B9 no binding seen
B10 no binding seen
B11 no binding seen
B12 no binding seen
B13 no binding seen
B14 no binding seen
B15 no binding seen
B16 no binding seen
B17 no binding seen
B18 no binding seen

Two records drawn at random from the list so far, as already listed:
Apparent Kd, inactive:
B16 no binding seen
B7 no binding seen
